According to paper doi:10.1101/2023.08.18.553817:
No constants are given. Whether binding was seen depends on the method and setting. In cells and extracts the contact can be indirect. Some results given as binding are weak or reduced against the parent protein; the word gives no strength.

Amino acid sequences for entries named in this document (tags omitted). A change or cut given only in a name is not applied to a line headed by its entry. Chains listed by the source or under a name are the forms on record and can include a tag or linker. Residues count along the entry.
FLAG-TAX1BP1^CC1 (WT) (Q86VP1, residues 147-343): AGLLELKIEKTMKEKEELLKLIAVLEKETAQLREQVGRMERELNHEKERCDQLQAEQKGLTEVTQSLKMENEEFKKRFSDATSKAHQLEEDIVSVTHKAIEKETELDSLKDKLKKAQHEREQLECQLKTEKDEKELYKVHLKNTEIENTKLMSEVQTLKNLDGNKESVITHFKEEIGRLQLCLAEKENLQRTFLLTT
FLAG-TAX1BP1^CC1 (K248E) (Q86VP1, form named): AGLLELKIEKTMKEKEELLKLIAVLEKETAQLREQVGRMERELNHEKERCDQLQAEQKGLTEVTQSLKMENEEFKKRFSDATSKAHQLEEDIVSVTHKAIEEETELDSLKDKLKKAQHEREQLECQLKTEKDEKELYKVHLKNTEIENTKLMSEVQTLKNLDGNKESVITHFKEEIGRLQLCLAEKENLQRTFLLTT

What was measured:
[1] = target: FLAG-TAX1BP1^CC1 (WT) (human) (UniProt Q86VP1); assay: co-IP
[2] = target: FLAG-TAX1BP1^CC1 (K248E) (human) (UniProt Q86VP1); assay: co-IP

Row | Binder | binding [1] | binding [2]
1 | SCAMP3 (protein, UniProt O14828 1-347) MAQSRDGGNPFAEPSELDNPFQDPAVIQHRPSRQYATLDVYNPFETREPPPAYEPPAPAPLPPPSAPSLQPSRKLSPTEPKNYGSYSTQASAAAATAELLKKQEELNRKAEELDRRERELQHAALGGTATRQNNWPPLPSFCPVQPCFFQDISMEIPQEFQKTVSTMYYLWMCSTLALLLNFLACLASFCVETNNGAGFGLSILWVLLFTPCSFVCWYRPMYKAFRSDSSFNFFVFFFIFFVQDVLFVLQAIGIPGWGFSGWISALVVPKGNTAVSVLMLLVALLFTGIAVLGIVMLKRIHSLYRRTGASFQKAQQEFAAGVFSNPAVRTAAANAAAGAAENAFRAP | binds | 
2 | ATG9A (protein, UniProt Q7Z3C6 1-839) MAQFDTEYQRLEASYSDSPPGEEDLLVHVAEGSKSPWHHIENLDLFFSRVYNLHQKNGFTCMLIGEIFELMQFLFVVAFTTFLVSCVDYDILFANKMVNHSLHPTEPVKVTLPDAFLPAQVCSARIQENGSLITILVIAGVFWIHRLIKFIYNICCYWEIHSFYLHALRIPMSALPYCTWQEVQARIVQTQKEHQICIHKRELTELDIYHRILRFQNYMVALVNKSLLPLRFRLPGLGEAVFFTRGLKYNFELILFWGPGSLFLNEWSLKAEYKRGGQRLELAQRLSNRILWIGIANFLLCPLILIWQILYAFFSYAEVLKREPGALGARCWSLYGRCYLRHFNELEHELQSRLNRGYKPASKYMNCFLSPLLTLLAKNGAFFAGSILAVLIALTIYDEDVLAVEHVLTTVTLLGVTVTVCRSFIPDQHMVFCPEQLLRVILAHIHYMPDHWQGNAHRSQTRDEFAQLFQYKAVFILEELLSPIVTPLILIFCLRPRALEIIDFFRNFTVEVVGVGDTCSFAQMDVRQHGHPQWLSAGQTEASVYQQAEDGKTELSLMHFAITNPGWQPPRESTAFLGFLKEQVQRDGAAASLAQGGLLPENALFTSIQSLQSESEPLSLIANVVAGSSCRGPPLPRDLQGSRHRAEVASALRSFSPLQPGQAPTGRAHSTMTGSGVDARTASSGSSVWEGQLQSLVLSEYASTEMSLHALYMHQLHKQQAQAEPERHVWHRRESDESGESAPDEGGEGARAPQSIPRSASYPCAAPRPGAPETTALHGGFQRRYGGITDPGTVPRVPSHFSRLPLGGWAEDGQSASRHPEPVPEEGSEDELPPQVHKV | no binding | no binding
